Measured values: PMC4982639, “Structural Basis of Microtubule Destabilization by Potent Auristatin Anti-Mitotics” (PLoS ONE, 2016)

Key:
β1-tubulin = test: Crystal structure of T2R-TTL complex, buried surface with β1-tubulin; set-up: species or system bovine; details: inter-dimer interface
α2-tubulin = test: Crystal structure of T2R-TTL complex, buried surface with α2-tubulin; set-up: species or system bovine; details: inter-dimer interface

CC[C@]1(O)C[C@@H]2CN(CCc3c([nH]c4ccccc34)[C@@](C(=O)OC)(c3cc4c(cc3OC)N(C)[C@H]3[C@@](O)(C(=O)OC)[C@H](OC(C)=O)[C@]5(CC)C=CCN6CC[C@]43[C@@H]65)C2)C1 [vinblastine]
buried surface area with β1-tubulin subunit (β1-tubulin): 326 Å^2
buried surface area with α2-tubulin subunit (α2-tubulin): 359 Å^2

monomethyl auristatin E [MMAE]
buried surface area with β1-tubulin subunit (β1-tubulin): 457 Å^2
buried surface area with α2-tubulin subunit (α2-tubulin): 273 Å^2
